Reference: paper doi:10.1101/2023.11.21.567992
These are yes or no findings as the source states them, for the method shown. In cells and extracts the contact can be indirect. Some results given as binding are weak or reduced against the parent protein; the word gives no strength. Tags and fused reporters may be left off the sequences shown.

Assays:
FLAG-tagged Nek2A = target: T1, FLAG-tagged Nek2A (UniProt P51955); test: co-IP
T1 sequence: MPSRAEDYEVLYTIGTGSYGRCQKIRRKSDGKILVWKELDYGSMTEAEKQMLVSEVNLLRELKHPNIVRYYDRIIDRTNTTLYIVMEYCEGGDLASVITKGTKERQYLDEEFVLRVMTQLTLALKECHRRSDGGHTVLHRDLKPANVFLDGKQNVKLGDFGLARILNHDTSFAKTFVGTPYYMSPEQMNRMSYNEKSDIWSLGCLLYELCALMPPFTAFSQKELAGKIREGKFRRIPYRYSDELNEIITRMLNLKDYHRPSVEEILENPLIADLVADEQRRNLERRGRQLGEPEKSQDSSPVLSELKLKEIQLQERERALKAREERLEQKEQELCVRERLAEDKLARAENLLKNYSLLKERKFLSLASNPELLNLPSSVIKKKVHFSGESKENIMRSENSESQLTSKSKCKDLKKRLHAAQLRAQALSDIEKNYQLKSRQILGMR

[1] = target: T2, KIF2C (human (endogenous in U2OS)) (UniProt Q99661); test: co-IP
T2 sequence: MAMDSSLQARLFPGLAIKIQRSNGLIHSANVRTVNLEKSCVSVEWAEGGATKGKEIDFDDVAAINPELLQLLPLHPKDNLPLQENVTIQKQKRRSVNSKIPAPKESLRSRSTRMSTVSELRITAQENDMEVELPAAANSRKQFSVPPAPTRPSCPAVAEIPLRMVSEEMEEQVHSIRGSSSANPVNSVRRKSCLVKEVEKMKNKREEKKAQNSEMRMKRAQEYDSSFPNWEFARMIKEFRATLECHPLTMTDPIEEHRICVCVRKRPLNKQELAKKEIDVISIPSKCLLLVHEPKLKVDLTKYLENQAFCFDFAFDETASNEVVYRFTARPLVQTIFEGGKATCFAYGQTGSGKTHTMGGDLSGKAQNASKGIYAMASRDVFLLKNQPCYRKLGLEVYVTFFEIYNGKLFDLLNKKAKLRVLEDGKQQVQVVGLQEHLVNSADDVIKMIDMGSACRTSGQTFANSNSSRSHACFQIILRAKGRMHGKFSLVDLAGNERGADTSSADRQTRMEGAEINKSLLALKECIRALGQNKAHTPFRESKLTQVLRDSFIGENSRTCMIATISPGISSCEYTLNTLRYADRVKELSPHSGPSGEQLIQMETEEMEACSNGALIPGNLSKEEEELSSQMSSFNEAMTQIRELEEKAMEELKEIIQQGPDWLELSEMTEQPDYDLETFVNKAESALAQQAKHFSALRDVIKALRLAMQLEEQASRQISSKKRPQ

B1: KIF2C (protein, UniProt Q99661 1-725)
chain: MAMDSSLQARLFPGLAIKIQRSNGLIHSANVRTVNLEKSCVSVEWAEGGATKGKEIDFDDVAAINPELLQLLPLHPKDNLPLQENVTIQKQKRRSVNSKIPAPKESLRSRSTRMSTVSELRITAQENDMEVELPAAANSRKQFSVPPAPTRPSCPAVAEIPLRMVSEEMEEQVHSIRGSSSANPVNSVRRKSCLVKEVEKMKNKREEKKAQNSEMRMKRAQEYDSSFPNWEFARMIKEFRATLECHPLTMTDPIEEHRICVCVRKRPLNKQELAKKEIDVISIPSKCLLLVHEPKLKVDLTKYLENQAFCFDFAFDETASNEVVYRFTARPLVQTIFEGGKATCFAYGQTGSGKTHTMGGDLSGKAQNASKGIYAMASRDVFLLKNQPCYRKLGLEVYVTFFEIYNGKLFDLLNKKAKLRVLEDGKQQVQVVGLQEHLVNSADDVIKMIDMGSACRTSGQTFANSNSSRSHACFQIILRAKGRMHGKFSLVDLAGNERGADTSSADRQTRMEGAEINKSLLALKECIRALGQNKAHTPFRESKLTQVLRDSFIGENSRTCMIATISPGISSCEYTLNTLRYADRVKELSPHSGPSGEQLIQMETEEMEACSNGALIPGNLSKEEEELSSQMSSFNEAMTQIRELEEKAMEELKEIIQQGPDWLELSEMTEQPDYDLETFVNKAESALAQQAKHFSALRDVIKALRLAMQLEEQASRQISSKKRPQ
binding (FLAG-tagged Nek2A): binds

B2: FLAG-tagged Nek2A (enzyme, UniProt P51955 1-445)
chain: MPSRAEDYEVLYTIGTGSYGRCQKIRRKSDGKILVWKELDYGSMTEAEKQMLVSEVNLLRELKHPNIVRYYDRIIDRTNTTLYIVMEYCEGGDLASVITKGTKERQYLDEEFVLRVMTQLTLALKECHRRSDGGHTVLHRDLKPANVFLDGKQNVKLGDFGLARILNHDTSFAKTFVGTPYYMSPEQMNRMSYNEKSDIWSLGCLLYELCALMPPFTAFSQKELAGKIREGKFRRIPYRYSDELNEIITRMLNLKDYHRPSVEEILENPLIADLVADEQRRNLERRGRQLGEPEKSQDSSPVLSELKLKEIQLQERERALKAREERLEQKEQELCVRERLAEDKLARAENLLKNYSLLKERKFLSLASNPELLNLPSSVIKKKVHFSGESKENIMRSENSESQLTSKSKCKDLKKRLHAAQLRAQALSDIEKNYQLKSRQILGMR
binding [1]: binds
